Results reported in paper doi:10.1101/2021.03.03.433722.
No constants are given. Whether binding was seen depends on the method and setting. For some assays here: A result given as binding can be weak or reduced; the word gives no strength. Where a sequence is shown, tags or fusion partners need not be part of it.

How the values were obtained:
[1] = biological target: T1, MvaT 79-124-His (P. aeruginosa) (UniProt Q9HW86); assay: pull-down
T1 sequence: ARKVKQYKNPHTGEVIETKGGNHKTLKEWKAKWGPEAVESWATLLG

[2] = biological target: T2, MvaT 1-62-His (P. aeruginosa) (UniProt Q9HW86); assay: pull-down
T2 sequence: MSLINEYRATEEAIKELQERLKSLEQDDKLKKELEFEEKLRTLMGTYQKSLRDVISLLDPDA

With gp4 of Pseudomonas phage LUZ24 the binding [1] was “no binding (tested: 40 µM)” and the binding [2] was “binds”.
